Measurements from PMC13075716.
These are yes or no findings as the source states them, for the method shown. Binding seen in cells or lysates may run through a third protein. Some binding calls cover weakened binding; strength is not graded here.

Amino acid sequences for entries named in this document (tags omitted).
UniProt O95721: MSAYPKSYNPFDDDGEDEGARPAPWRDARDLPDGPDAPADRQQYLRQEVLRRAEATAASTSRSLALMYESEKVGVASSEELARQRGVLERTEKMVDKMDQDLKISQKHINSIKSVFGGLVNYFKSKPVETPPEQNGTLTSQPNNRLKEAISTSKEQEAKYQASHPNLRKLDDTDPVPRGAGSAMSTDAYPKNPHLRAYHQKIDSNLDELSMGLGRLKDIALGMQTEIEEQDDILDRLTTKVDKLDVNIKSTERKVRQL
UniProt Q01220: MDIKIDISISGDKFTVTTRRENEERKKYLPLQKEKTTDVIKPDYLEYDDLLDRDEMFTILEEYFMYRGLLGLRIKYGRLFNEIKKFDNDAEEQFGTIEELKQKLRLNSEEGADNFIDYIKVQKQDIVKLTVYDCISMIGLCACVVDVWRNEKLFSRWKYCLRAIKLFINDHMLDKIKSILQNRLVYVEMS

Molecular target: Myc-tagged human SNAP29 (synaptosome associated protein 29), transfected (human) (UniProt O95721)
Test: co-IP

In the case of “Flag-tagged A52 of vaccinia virus Western Reserve (WR178), transfected (from UniProt Q01220 1-190)”, the binding is reported as “binds”.
